1 substance from article PMC12098688 can be followed below.

Amino acid sequences for entries named in this document (tags omitted). Residues count along the entry.
UniProt Q15843, residues 1-76: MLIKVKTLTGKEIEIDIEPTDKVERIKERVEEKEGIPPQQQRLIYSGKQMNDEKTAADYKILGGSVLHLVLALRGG
UniProt P61586: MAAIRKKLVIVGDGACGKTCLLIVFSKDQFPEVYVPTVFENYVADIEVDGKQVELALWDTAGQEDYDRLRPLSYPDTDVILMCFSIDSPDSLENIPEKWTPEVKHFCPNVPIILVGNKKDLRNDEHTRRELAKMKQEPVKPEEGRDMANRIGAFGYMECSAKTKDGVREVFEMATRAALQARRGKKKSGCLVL

No constants are given. Whether binding was seen depends on the method and setting. In cells and extracts the contact can be indirect. These calls come from enrichment with a bait or labelling near it, and not all partners need be listed.

This assay has as its target endogenous NEDD8 (HK-2 cells) (human (endogenous in HK-2)) (UniProt Q15843). The assay can be described thus: affinity purification with mass spectrometry; immunoprecipitation with NEDD8 from HK-2 cell lysate (HG-stimulated per the discussion), LC-MS/MS of the precipitate.

For the substance “endogenous RhoA (HK-2 cells) (from UniProt P61586 1-193)”, the binding result was “binds”.
